Taken from: PubChem BioAssay AID1259424 (University of Nebraska Medical Center, 2018)
Purpose: 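Seek colon cancer survival genes behaving like KSR1, using a six-gene signature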 (primary screen). System: human HCT116 colon cancer cells. Reagent: siRNA pool against human genes, 50 nM. Read-out: 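Log2 levels of six mRNAs (branched-DNA multiplex), adjusted by two reference genes and the non-targeting median, then scored against the average KSR1 knockdown pattern as Pearson r and euclidean distance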. Scale: mean correlation with KSR1 profile and KSR1 correlation: higher = expression change more like KSR1 knockdown; mean distance from KSR1 profile: higher = expression change less like KSR1 knockdown.
The deposit covers about 14,000 reagents; this is a part drawn at random. 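Higher correlation or smaller distance means closer resemblance to KSR1 loss; control wells, including KSR1 knockdowns, recur on many plates.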 The record does not give: the time to read-out.

Gene | PubChem SID | mean correlation with KSR1 profile | mean distance from KSR1 profile | KSR1 correlation, replicate 1 | KSR1 correlation, replicate 2 | KSR1 correlation, replicate 3
HIVEP2 | SID363997506 | 0.536 | 2.52 | 0.747 | 0.233 | 0.624
ZFHX2 | SID364005071 | 0.28 | 3.42 | 0.111 | 0.261 | 0.113
ZFHX2 | SID364005519 | -0.531 | 3.81 | -0.565 | -0.459 | -0.502
MACC1 | SID364004963 | 0.624 | 1.32 | 0.7 | 0.791 | 0.646
LTB | SID363993525 | 0.0456 | 1.94 | 0.175 | -0.16 | 0.0956
SSNA1 | SID363994798 | 0.519 | 4.38 | 0.0565 | 0.295 | 0.567
NPTX2 | SID363993695 | 0.784 | 1.21 | 0.805 | 0.89 | 0.754
CAP2 | SID363997182 | 0.0474 | 3.08 | 0.0876 | -0.0776 | 0.125
DNTT | SID363995098 | 0.363 | 2.56 | 0.481 | 0.247 | 0.0772
FBXL5 | SID363998105 | -0.164 | 2.04 | -0.235 | -0.157 | -0.151
CCKBR | SID364004886 | 0.184 | 1.31 | -0.333 | 0.239 | 0.427
TWIST1 | SID363991797 | 0.121 | 2.57 | 0.329 | 0.118 | -0.042
MICU1 | SID363996921 | -0.504 | 3.55 | -0.356 | -0.629 | -0.434
LEPROT | SID364000338 | -0.299 | 3.11 | -0.381 | -0.378 | -0.382
TEAD1 | SID364002252 | 0.358 | 1.68 | 0.243 | 0.498 | 0.434
WRNIP1 | SID364001498 | 0.326 | 1.79 | 0.221 | 0.305 | 0.362
METTL14 | SID364001915 | 0.514 | 0.836 | 0.863 | 0.34 | 0.514
TRIP10 | SID363995239 | 0.129 | 1.64 | 0.297 | 0.157 | 0.0014
PRKAB2 | SID363996308 | 0.602 | 2.12 | 0.79 | 0.586 | 0.348
RAD51C | SID363994032 | 0.512 | 1.44 | -0.192 | 0.748 | 0.476

2 entries from above, reformatted.
Gene,PubChem SID,mean correlation with KSR1 profile,mean distance from KSR1 profile,"KSR1 correlation, replicate 1","KSR1 correlation, replicate 2","KSR1 correlation, replicate 3"
LEPROT,SID364000338,-0.299,3.11,-0.381,-0.378,-0.382
TEAD1,SID364002252,0.358,1.68,0.243,0.498,0.434
